Source: US8575376B2, “Steroide anionic compounds, method of their production, usage and pharmaceutical preparation involving them” (Ustav Organicke Chemie A Biochemie Akademie Ved Ceske …, priority 2009, dated 2013)

Tested on: rats
Experiment: AAPA task after MK-801 (animal model of schizophrenia)
Type: in vivo, rat
Settings: MK-801 0.1 mg/kg alone
Description: The effect of compound from example 9 application on changes in behavior and locomotor activity in animal model of schizophrenia was monitored. Schizophrenia-like behavior in rats was induced by dizocilpine (MK-801) administration. […] was administered in doses of 0.001 mg/kg, 0.01 mg/kg, 0.1 mg/kg and 10 mg/kg. Spatial orientation and cognitive function of rats were assessed in active allothetic place avoidance task (AAPA).
Schizophrenia-like behaviour in rats was induced by administration of dizocilpine (MK-801). Spatial navigation and cognitive functions of rats were assessed in active alothetic place avoidance task (AAPA). In addition, this task allows simultaneous assessment of potential differences in locomotory activity. The AAPA task requires rats moving on a continuously rotating (1 rpm) smooth metallic circular arena to avoid an unmarked place defined in the coordinates of the experimental room. The avoidance is reinforced by a mild electric foot-shock administered automatically upon entering the to-be avoided place.
The AAPA task is highly dependent on hippocampal function, since even a unilateral inactivation of thstructure hippocampus impairs this behaviour. Animals have to actively and repeatedly move away from the to-be-avoided place otherwise they are brought there by the arena rotation. Each AAPA session lasts 20 min and 4 sessions were conducted over 4 consecutive days.
Rats received 0.1 mg/kg MK-801 alone or co-administered with the compound from example 9 (dissolved in β-cyclodextrine) in doses of 0.001 mg/kg, 0.01 mg/kg, 0.1 mg/kg, and 10 mg/kg. Control animals received saline. […] It is for a common animal model of schizophrenia-like behaviour.
The results are shown in FIGS. 21-23, where means and standard errors of the mean (S.E.M.) are represented for individual sessions. Statistic analysis was for better clarity stated always for the last session, when an asymptotic level of performance in control animals was reached.

For `C[C@]12N[C@H](Cc3ccccc31)c1ccccc12` [dizocilpine], the “locomotion activity in AAPA (total distance)” value was “did not lead to enhanced locomotion”, the “maximum time of avoidance in AAPA” value was “produced a significant deficit in this parameter” and the “number of errors (entrances) in AAPA” value was “resulted in marked impairment of this parameter”.
